Experimental data taken from PMC11191273.
No constants are given. Whether binding was seen depends on the method and setting. In cells and extracts the contact can be indirect. Some results given as binding are weak or reduced against the parent protein; the word gives no strength.

Sequences of proteins named here, by UniProt entry; tags and fusion partners are left off.
UniProt P18085: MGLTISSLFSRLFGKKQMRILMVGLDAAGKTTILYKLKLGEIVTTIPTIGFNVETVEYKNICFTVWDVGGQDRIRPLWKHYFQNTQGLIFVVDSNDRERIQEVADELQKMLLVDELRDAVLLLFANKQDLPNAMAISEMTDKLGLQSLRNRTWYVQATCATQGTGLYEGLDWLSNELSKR
UniProt Q9UMX0: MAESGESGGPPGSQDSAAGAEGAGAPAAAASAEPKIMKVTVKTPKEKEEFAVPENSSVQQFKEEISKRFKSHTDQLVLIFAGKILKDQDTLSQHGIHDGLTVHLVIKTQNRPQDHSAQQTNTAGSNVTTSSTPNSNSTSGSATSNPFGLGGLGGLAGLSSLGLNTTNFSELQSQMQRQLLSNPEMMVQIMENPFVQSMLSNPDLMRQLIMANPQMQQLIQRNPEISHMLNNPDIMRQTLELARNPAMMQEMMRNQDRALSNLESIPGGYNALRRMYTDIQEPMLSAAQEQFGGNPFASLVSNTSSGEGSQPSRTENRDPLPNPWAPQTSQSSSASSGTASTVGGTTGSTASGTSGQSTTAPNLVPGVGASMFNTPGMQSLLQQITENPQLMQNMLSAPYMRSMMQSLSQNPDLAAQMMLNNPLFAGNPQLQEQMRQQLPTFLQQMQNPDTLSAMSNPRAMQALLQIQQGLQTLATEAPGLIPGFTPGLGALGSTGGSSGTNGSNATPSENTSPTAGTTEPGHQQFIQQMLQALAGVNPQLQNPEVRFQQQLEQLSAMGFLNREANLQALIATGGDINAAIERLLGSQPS

What was measured:
3Flag-ARF4 = 3Flag-ARF4 (UniProt P18085); test: co-IP; 3Flag-ARF4 hESC cell line used to pull down the protein (Flag antibody); UBQLN1 detected in the precipitate
[1] = molecular target: 3Flag-UBQLN1 (Ubiquilin1, Flag-tagged) (human) (UniProt Q9UMX0); test: co-IP; anti-Flag immunoprecipitation from lysate (NETN buffer) of hESCs stably expressing 3Flag-UBQLN1, Protein G beads, 4 °C; blot for mitochondria components; IgG as control

“UBQLN1 (in the 3Flag-ARF4 cell line) (from UniProt Q9UMX0 1-589)” was tested, and the binding (3Flag-ARF4) was “binds”.

B1: SDHB (protein, UniProt P21912 29-280)
chain: AQTAAATAPRIKKFAIYRWDPDKAGDKPHMQTYEVDLNKCGPMVLDALIKIKNEVDSTLTFRRSCREGICGSCAMNINGGNTLACTRRIDTNLNKVSKIYPLPHMYVIKDLVPDLSNFYAQYKSIEPYLKKKDESQEGKQQYLQSIEEREKLDGLYECILCACCSTSCPSYWWNGDKYLGPAVLMQAYRWMIDSRDDFTEERLAKLQDPFSLYRCHTIMNCTRTCPKGLNPGKAIAEIKKMMATYKEKKASV
For B1, the binding [1] was “no binding”.
